Measured values from US20180355033A1, “ANTIBODIES, COMPOUNDS AND SCREENS FOR IDENTIFYING AND TREATING CACHEXIA OR PRE-CACHEXIA” (Dana-Farber Cancer Institute, Inc., priority 2015, published 2018).
For at least one compound, name, drawing or mass did not settle the structure.

Test system: adipocytes
Test: Lipid loss in adipocytes
Assay type: cell-based
Details: FIG. 40

Compound: CC(=O)Nc1cccc(-n2c(=O)n(C3CC3)c(=O)c3c(Nc4ccc(I)cc4F)n(C)c(=O)c(C)c32)c1 [Trametinib]
- inhibition of lipid loss in adipocytes: inhibits lipid loss in adipocytes
